Results deposited as PubChem BioAssay AID1671195 (Yale University, 2021).
Aim: 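Regulators of LDL receptor activity judged by labelled LDL uptake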 (primary screen). Cell system: human Huh7 hepatoma cells. Knock-down reagent: siRNA pool against human genes, 18 nM. Time to read-out: about 2 to 2.5 days of knockdown, then 8 h LDL uptake. Challenge: DiI-labelled LDL at 30 µg/ml for 8 h, in lipoprotein-deficient serum medium. Detection: 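Per-cell DiI-LDL intensity by automated imaging; well means scaled to the plate median and given as a robust z-score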. Reading the numbers: robust z-score: higher = more LDL uptake after knockdown. Rule for the call: 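a gene counts as active if at least two replicate z-scores exceed ±2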.
This is one part, drawn at random, of about 22,000 deposited reagents. In the full data, about 1,510 (6.9%) got an active call. 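Active includes knockdowns raising or lowering LDL uptake; positive z-scores mean more uptake, negative mean less.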 Reagent sequences are not shown.

The opening 8 entries, ahead of the listing:
no.	target gene	PubChem SID	robust z-score, replicate 1	robust z-score, replicate 2	robust z-score, replicate 3	activity call
1	LOC388205 (retired record)	SID442889873	0.351	0.821	0.315	inactive
2	LOC100289495	SID442888046	0.931	0.711	0.732	inactive
3	HNRNPA1P60 (heterogeneous nuclear ribonucleoprotein A1 pseudogene 60)	SID442903797	-1.53	-1.68	-0.974	inactive
4	LOC401905 (retired record)	SID442901858	-0.676	-1.17	-1.07	inactive
5	NDUFA10 (NADH:ubiquinone oxidoreductase subunit A10)	SID442893437	0.462	-0.428	0.117	inactive
6	OR5L2 (olfactory receptor family 5 subfamily L member 2)	SID442887251	0.905	0.92	1.04	inactive
7	ZNF540 (zinc finger protein 540)	SID442884393	-2.23	-1.83	-2.08	active
8	ANKK1 (ankyrin repeat and kinase domain containing 1)	SID442890892	0.494	0.405	0.175	inactive

The list itself, from the first entry:
no.	target gene	PubChem SID	robust z-score, replicate 1	robust z-score, replicate 2	robust z-score, replicate 3	activity call
1	LOC388205 (retired record)	SID442889873	0.351	0.821	0.315	inactive
2	LOC100289495	SID442888046	0.931	0.711	0.732	inactive
3	HNRNPA1P60 (heterogeneous nuclear ribonucleoprotein A1 pseudogene 60)	SID442903797	-1.53	-1.68	-0.974	inactive
4	LOC401905 (retired record)	SID442901858	-0.676	-1.17	-1.07	inactive
5	NDUFA10 (NADH:ubiquinone oxidoreductase subunit A10)	SID442893437	0.462	-0.428	0.117	inactive
6	OR5L2 (olfactory receptor family 5 subfamily L member 2)	SID442887251	0.905	0.92	1.04	inactive
7	ZNF540 (zinc finger protein 540)	SID442884393	-2.23	-1.83	-2.08	active
8	ANKK1 (ankyrin repeat and kinase domain containing 1)	SID442890892	0.494	0.405	0.175	inactive
9	CASD1 (CAS1 domain sialic acid O acetyltransferase 1)	SID442898468	-0.637	-0.561	-0.308	inactive
10	AGPAT2 (1-acylglycerol-3-phosphate O-acyltransferase 2)	SID442888926	0.602	1.15	0.162	inactive
11	PNPLA2 (patatin like domain 2, triacylglycerol lipase)	SID442889372	0.358	0.656	0.696	inactive
12	PAIP2 (poly(A) binding protein interacting protein 2)	SID442889325	0.571	0.309	0.852	inactive
13	TOP3B (DNA topoisomerase III beta)	SID442893126	-0.64	0.722	0.174	inactive
14	HMGCL (3-hydroxy-3-methylglutaryl-CoA lyase)	SID442884018	2.47	1.06	2.65	active
15	MYL2 (myosin light chain 2)	SID442889279	0.72	1.05	-0.0171	inactive
16	EIF2B4 (eukaryotic translation initiation factor 2B subunit delta)	SID442893125	-0.264	0.179	0.341	inactive
17	BEND5 (BEN domain containing 5)	SID442887309	0.814	1.27	0.745	inactive
18	LOC199897 (retired record)	SID442893637	-0.103	0.164	0.0203	inactive
19	PKD1L1	SID442895296	-0.453	0.354	-0.365	inactive
20	LOC442265 (retired record)	SID442899114	-0.677	-0.931	-0.125	inactive
21	ARIH2 (ariadne RBR E3 ubiquitin protein ligase 2)	SID442901420	0.112	-1.14	-1.67	inactive
22	GRM5 (glutamate metabotropic receptor 5)	SID442895050	0.177	-0.774	0.212	inactive
23	FBXO27 (F-box protein 27)	SID442899590	0.253	-1.78	-0.398	inactive
24	LOC440344 (retired record)	SID442897905	-0.48	-0.435	-0.398	inactive
25	ADHFE1 (alcohol dehydrogenase iron containing 1)	SID442884441	-2	-2.07	-2.33	active
26	RPIA (ribose 5-phosphate isomerase A)	SID442901880	-0.853	-1.03	-1.05	inactive
27	RAB9A (RAB9A, member RAS oncogene family)	SID442890255	-0.584	1.62	0.296	inactive
28	SH2D1A (SH2 domain containing 1A)	SID442891137	-0.0214	0.72	0.277	inactive
29	INSYN1 (inhibitory synaptic factor 1)	SID442902594	-1.2	-1.16	-0.969	inactive
30	MTREX (Mtr4 exosome RNA helicase)	SID442897276	-0.276	-0.534	-0.291	inactive
31	ZNF669 (zinc finger protein 669)	SID442885456	1.93	1.37	1.22	inactive
32	HMGCS2 (3-hydroxy-3-methylglutaryl-CoA synthase 2)	SID442900561	-1.42	0.96	-1.87	inactive
33	C1QBP (complement C1q binding protein)	SID442885500	1.21	1.58	1.67	inactive
34	LOC284240	SID442883956	2.08	2.07	2.22	active
35	GRIN3B (glutamate ionotropic receptor NMDA type subunit 3B)	SID442890252	0.162	0.445	0.721	inactive
36	ZYG11B (zyg-11 family member B, cell cycle regulator)	SID442887316	1.18	0.663	0.982	inactive
37	SLC25A32	SID442889532	0.643	0.432	0.559	inactive
38	DIP2C (DIP2 acetate--CoA ligase C (putative))	SID442889681	0.493	1.5	-0.427	inactive
39	SEC22A (SEC22 homolog A, vesicle trafficking protein)	SID442898311	1.34	-2.66	-0.133	inactive
40	ZNF543 (zinc finger protein 543)	SID442884534	-2.37	-2.22	-2.49	active
41	APRT (adenine phosphoribosyltransferase)	SID442898007	-0.165	-0.477	-0.712	inactive
42	ORC2 (origin recognition complex subunit 2)	SID442894057	-0.00648	-0.361	0.302	inactive
43	SP6 (Sp6 transcription factor)	SID442885786	1.25	1.08	1.78	inactive
44	DCAF8L2 (DDB1 and CUL4 associated factor 8 like 2)	SID442896910	-0.311	-0.384	-0.282	inactive
45	DCAF8L2 (DDB1 and CUL4 associated factor 8 like 2)	SID442900831	-0.799	-0.911	-0.729	inactive
46	RPS23 (ribosomal protein S23)	SID442894317	-0.693	0.684	-0.141	inactive
47	SLC60A2	SID442900041	-0.791	-0.406	-0.912	inactive
48	TRIM35 (tripartite motif containing 35)	SID442891042	-0.529	0.842	0.702	inactive
49	SENP1 (SUMO specific peptidase 1)	SID442886642	0.9	1.49	0.908	inactive
50	SCEL (sciellin)	SID442904123	-1.43	-1.23	-1.84	inactive
51	IWS1 (interacts with SUPT6H, CTD assembly factor 1)	SID442884259	-2.08	-0.569	-1.99	active
52	C20orf204 (chromosome 20 open reading frame 204)	SID442894171	0.175	-0.303	0.0243	inactive
53	TMEM38A (transmembrane protein 38A)	SID442883136	4.99	4.91	4.42	active
54	IL11RA (interleukin 11 receptor subunit alpha)	SID442900190	-0.663	-0.774	-0.743	inactive
55	LOC285544 (retired record)	SID442899327	-0.473	-0.783	-0.558	inactive
56	HLA-DQA2 (major histocompatibility complex, class II, DQ alpha 2)	SID442896750	-0.543	0.211	-0.595	inactive
57	MDH2 (malate dehydrogenase 2)	SID442885661	1.32	1.18	1.75	inactive
58	RPL24 (ribosomal protein L24)	SID442898862	-0.479	-0.974	-0.189	inactive
59	ASAP1 (ArfGAP with SH3 domain, ankyrin repeat and PH domain 1)	SID442897337	-0.428	-0.488	-0.208	inactive
60	KIF27P2 (KIF27 pseudogene 2)	SID442885702	1.19	1.5	1.52	inactive
61	P2RY6 (pyrimidinergic receptor P2Y6)	SID442902787	-1.4	-0.89	-1.16	inactive
62	CXCR2 (C-X-C motif chemokine receptor 2)	SID442902900	-0.907	-1.14	-1.46	inactive
63	LOC441806 (proteasome 26S subunit, non-ATPase 8 pseudogene)	SID442894029	-0.355	0.379	-0.0787	inactive
64	LOC401268 (retired record)	SID442884389	-2.11	-1.9	-2.12	active
65	ARSK (arylsulfatase family member K)	SID442900388	-0.726	-0.748	-0.787	inactive
66	ADAM32 (ADAM metallopeptidase domain 32)	SID442900072	-0.668	-0.911	-0.545	inactive
67	PTTG1IP (PTTG1 interacting protein)	SID442903075	-1.61	-0.666	-1.35	inactive
68	RAB3C (RAB3C, member RAS oncogene family)	SID442891929	0.502	0.059	0.125	inactive
